# Values joined by “and” are separate entries in the source; they are usually repeats but may differ in a detail not shown here. Identical values can stand only once. Screen size: about 400,000 compounds; about 5,500 (1.4%) were called active. The inconclusive results got no clear call from the source; some entries with a clear call stand among them for comparison. The call rests on the fitted dose curve; in most records, active means well fitted cell-killing curve with a large enough effect; inconclusive means small, poorly fitted or top-dose-only effect, or effect the other way; inactive means flat fitted curve, though single readings scatter. Where the call is inconclusive, the potency comes from a doubtful curve fit.
# Assay: qHTS assay for MDR1-selective chemotherapeutics: Primary screen using the parental adenocarcinoma cell KB-3-1; further: nearly all actives have a fitted effect of over 60% in size
# Conditions: KB-3-1 viability, CellTiter-Glo ATP luminescence, 72 h; activity change, negative = cytotoxic: at 46.1 µM (top of the series)
# Outline: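 Parental KB-3-1 viability, qHTS format: 72 h compound exposure, 37 °C; CellTiter-Glo; media-only wells and DMSO plates as controls; concentration-effect fits on corrected data.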
# On the % scale 0 is the no-effect control and ±100 the full control effect; potency means the concentration at half of the fitted maximal effect.
Compound,Potency,"activity change, negative = cytotoxic"
CC(=O)C1=C(C)NC(SCC(=O)Nc2nc3ccccc3s2)=C(C#N)C1c1ccc(Cl)cc1 (stereo not drawn),"inconclusive: 20.6 µM [cytotoxic, single point]",
O=C(CCl)NNC(=O)c1c(O)c2ccccc2[nH]c1=O,active: 14.6 µM,
CC1(c2ccccc2)NC(=O)N(CC(=O)Nc2cc(C(F)(F)F)ccc2N2CCCCC2)C1=O (stereo not drawn),"inconclusive: 16.4 µM [cytotoxic, single point]",
O=C(NC1CCCC(C(F)(F)F)C1)c1ccc([N+](=O)[O-])o1 (stereo not drawn),"inconclusive: 29.1 µM [cytotoxic, single point]",
CC(=O)c1cccc(-n2nnnc2SCC(=O)Nc2ccccc2N2CCCCC2)c1,"inconclusive: 16.4 µM [cytotoxic, single point]",
COc1ccc(Cn2c(SCc3ccc(C(=O)NC4CCCCC4)cc3)nc3cccnc32)cc1,,inactive: -11.1%
CCc1ccc(/C=N/NC(=O)c2ccc(OC3CCCC3)cc2)s1,"inconclusive: 20.6 µM [cytotoxic, single point]",
COc1ccc(N(CC(=O)Nc2cc(OC)c(OC)cc2C(=O)O)S(=O)(=O)c2c(C)noc2C)cc1,,inactive: 11.9%
CCn1c2ccccc2c2cc(NC(=O)CN(C)CC(=O)Nc3ccc(N4CCOCC4)cc3)ccc21,"inconclusive: 29.1 µM [rising, single point]",
COc1cccc(N=Nc2c(N)[nH]n3c(=O)cc(-c4ccccc4)nc23)c1,"inconclusive: 29.1 µM [cytotoxic, single point]",
COc1ccccc1-c1cnc(C(O)c2ccc(C)cc2)[nH]1 (stereo not drawn),,inactive: 0%
COc1ccc(OC)c(NC(=O)c2cc(-c3cc(C)ccc3O)n[nH]2)c1,"inconclusive: 29.1 µM [cytotoxic, single point]",
O=c1c2ccccc2sc2ccccc12,"inconclusive: 32.6 µM [cytotoxic, partial curve, poor fit]",
COc1ccc2nc(NC(=O)Cn3cnc4ccccc4c3=O)sc2c1,"inconclusive: 16.4 µM [rising, partial curve]",
CN(C)S(=O)(=O)c1cccc(NC(=O)COc2cccc3ccccc23)c1,,inactive: 2.47%
COc1ccc(S(=O)(=O)NCc2ccc(C(=O)N3CCc4ccccc4C3)cc2)cc1,"inconclusive: 29.1 µM [cytotoxic, single point]",
COC(=O)c1ccc2nc(-c3cccc(Cl)c3)c(Cc3ccccc3OC)n2c1,,inactive: -1.76%
CC(=O)Oc1cc2c(cc1Cl)C(c1cccs1)CC1(CC(C)(C)NC(=S)N1)O2 (stereo not drawn),"inconclusive: 29.1 µM [cytotoxic, single point]",
COC(=O)[C@@]1(Cc2ccc(OC)cc2)[C@H]2c3cc(C(=O)N4CCCC4)n(Cc4ccsc4Br)c3C[C@H]2CN1C(=O)c1ccccc1,active: 18.4 µM,
CC1CCCCC1NC(=O)CSc1nnc(CNC(=O)c2ccccc2)n1C (stereo not drawn),"inconclusive: 0.164 µM [rising, partial curve, poor fit]",
COc1ccc2c(c1)C(C)=CC(C)(C)N2S(=O)(=O)c1ccc(NC(C)=O)cc1,active: 2.06 µM,
CCOC(=O)C1CCN(C(=O)COC(=O)/C=C/c2ccccc2)CC1,"inconclusive: 0.58 µM [rising, full curve]",
CC(C)[C@H](NC(=O)c1ccc(C(C)(C)C)cc1)C(=O)N1CCN(Cc2ccc3c(c2)OCO3)CC1,"inconclusive: 29.1 µM [cytotoxic, single point]",

Compound,Potency,"activity change, negative = cytotoxic"
Brc1ccc([C@H]2CN3CCSC3=N2)cc1,,inactive: 0%
O=C(Nc1cc(S(=O)(=O)N2CCCCC2)ccc1O)c1ccccc1NS(=O)(=O)c1ccc(F)c(F)c1,"inconclusive: 29.1 µM [cytotoxic, single point]",
Cc1c(C(=O)/C=C/c2cccs2)oc2ccc(F)cc12,"inconclusive: 32.6 µM [cytotoxic, single point]",
O=C(NCCc1ccccc1)c1cc(-c2ccc(Br)cc2)on1,"inconclusive: 13 µM [rising, partial curve, poor fit]",
O=c1cc(CSc2nc(NCc3ccc(Cl)cc3)c3ccccc3n2)nc2ccc(Cl)cn12,,inactive: 19.5%
O=C(CCN1CCN(Cc2ccccc2)CC1)NNC(=O)Cc1ccc(Cl)c(Cl)c1,"inconclusive: 29.1 µM [cytotoxic, single point]",
O=C(COC(=O)c1c[nH]c(=O)[nH]c1=O)Nc1cccc([N+](=O)[O-])c1,"inconclusive: 0.0411 µM [rising, full curve]",
CC(=O)N1c2ccc(S(=O)(=O)NCC3CCC(C(=O)Nc4cc(C)ccn4)CC3)cc2CC1C (stereo not drawn),active: 23.1 µM,
Cc1ccc2nc(NC(=O)CSc3nncc(=O)n3N)sc2c1,,inactive: -2.6%
Cc1ccc(-n2nc3c(c2NC(=O)c2ccco2)CS(=O)C3)cc1 (stereo not drawn),"inconclusive: 0.206 µM [cytotoxic, full curve]",
O=C(/C=C/c1ccccc1)NC(=S)NNC(=O)Cc1cccs1,"inconclusive: 29.1 µM [cytotoxic, single point]",
CCn1c(/C(C#N)=C(\O)CCc2ccccc2)nc2ccccc21,"inconclusive: 20.6 µM [cytotoxic, single point]",
CCOC(=O)N1CCN(S(=O)(=O)c2ccc3c(c2)SC(C)C(=O)N3)CC1 (stereo not drawn),"inconclusive: 6.51 µM [cytotoxic, partial curve]",
COc1cccc(CNC(=O)c2[nH]c3cc(C)ccc3c2Sc2ccccc2)c1,,inactive: -0.095%
Cc1ccc(CNn2cnnc2SCc2ccc(F)cc2)cc1,"inconclusive: 16.4 µM [cytotoxic, partial curve]",
COC(=O)c1c(C(=O)OC)n(CCCN)c2ccc(C)cc12,"inconclusive: 16.4 µM [cytotoxic, single point]",
O=C(Cc1cccs1)Nc1nc(-c2ccc(F)cc2F)cs1,active: 23.1 µM,
Cc1nc2ncnn2c(N2CCCC(C(=O)Nc3ccc4c(c3)CCC4)C2)c1C (stereo not drawn),"inconclusive: 29.1 µM [cytotoxic, single point]",
CCOC(=O)C1=CC[C@@H](c2ccncc2)N(S(=O)(=O)c2ccc(C)cc2)C1,"inconclusive: 29.1 µM [cytotoxic, single point]",
CN(c1ccccc1)S(=O)(=O)c1ccc(C(=O)NCc2ccc(F)cc2)cc1,"inconclusive: 18.4 µM [cytotoxic, partial curve, poor fit]",
CCCn1c(=N)n(CC(O)COc2cccc(C)c2)c2ccccc21 (stereo not drawn),"inconclusive: 20.6 µM [cytotoxic, single point]",
CCN(CC)CCNc1ncnc2c1cnn2-c1cc(Cl)ccc1C,,inactive: -5.85%
O=C(Cn1cnc2c(cnn2-c2ccccc2)c1=O)NCc1ccccc1,active: 8.2 µM,

Compound,Potency,"activity change, negative = cytotoxic"
COc1ccc(-n2nnnc2-c2cccc(OC)c2)cc1,active: 1.03 µM,
CCCCc1c(-c2ccccc2OC)ncn1C1CCCC1,active: 18.4 µM,
Cc1ccc(/C=N/NC(=O)c2n[nH]c3c2CCCC3)cc1,"inconclusive: 0.731 µM [cytotoxic, full curve, poor fit]",
O=C(N/N=C/C=C\c1ccccc1[N+](=O)[O-])c1cc(-c2ccccc2)nc2ccccc12,"inconclusive: 25.9 µM [cytotoxic, partial curve, poor fit]",
CCN(CC)C1Oc2cc3c(cc2C(c2cc(OC)c(OC)c(OC)c2)C1C)OCO3 (stereo not drawn),active: 1.16 µM,
COc1ccccc1Cc1c(-c2ccc(OC)c(OC)c2)nc2ccc(C)cn12,,inactive: 0.0302%
Cc1[nH]nc(-c2ccc(OCc3cnn(-c4ccccc4)c3)cc2O)c1Oc1ccccc1F,"inconclusive: 29.1 µM [cytotoxic, single point]",
COc1cc(NC(=O)c2cc(Cl)ccc2Cl)ccc1NC(=O)c1cc2ccccc2o1,,inactive: -1.1%
Clc1ccc(C[n+]2cc(-c3ccccc3)n3c2CCCCC3)c(Cl)c1,active: 2.06 µM,
NNC(=O)c1sc(-c2ccc(Cl)cc2)cc1N,"inconclusive: 29.1 µM [cytotoxic, single point]",
CC(=O)Nc1ccc(S[C@@H](CCN2CC[C@H](C(C)(C)C)CCC2=O)c2ccccc2)cc1,"inconclusive: 29.1 µM [cytotoxic, single point] and inconclusive: 20.6 µM [cytotoxic, single point]",
CCCc1ccc(C(=O)/C=C/N(C)C)cc1,,inactive: -5.96%
COc1cc(/C=N/Nc2nc(C)nc3c2cnn3-c2ccccc2)ccc1O,"inconclusive: 13 µM [cytotoxic, partial curve, poor fit]",
CCOC(=O)c1c(C)[nH]c(C(=O)OCC(=O)c2ccccc2)c1C,,inactive: 18.3%
COC(=O)c1sc(N2C(=O)c3oc4ccc(F)cc4c(=O)c3C2c2ccc(C)cc2)nc1C (stereo not drawn),"inconclusive: 5.8 µM [rising, partial curve, poor fit]",
O=C(c1cnc2sccn2c1=O)N1CCCc2ccccc21,,inactive: 13.2%
C[C@@H]1[C@H](c2ccccc2)OCCS(=O)(=O)N1Cc1ccccc1Br,"inconclusive: 20.6 µM [cytotoxic, single point]",
Cc1cccc(NC(=O)CSc2nc3ccc(NC(=O)COc4ccc(Cl)cc4)cc3s2)c1,"inconclusive: 10.3 µM [cytotoxic, partial curve, poor fit]",
CC(=O)c1cnc2c(-c3ccccc3)c(-c3ccccc3)nn2c1C,,inconclusive: 0%
OCCNC(=S)Nc1cccc(Cl)c1Cl,,inactive: 0.988%
O=C(Nc1nnc(SCc2cc(=O)c3ccccc3[nH]2)s1)c1ccccc1,"inconclusive: 25.9 µM [cytotoxic, single point]",
CCOC(=O)[C@]12CCCC=C1N(CCc1ccc(OC)c(OC)c1)C(=O)[C@H](CC(=O)N1CCCC1)C2,,inconclusive: -12.5%

# Source: PubChem BioAssay AID1347075 (National Center for Advancing Translational Sciences (NCATS), 2019)
